Measured data: PubChem BioAssay AID504793 (Drosophila RNAi Screening Center, 2011)

Assay: 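Genes required for cells to halt at G2/M after double-strand DNA breaks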 (primary screen)
Cells: Drosophila S2R+ cells
Knock-down reagent: long dsRNA against Drosophila genes, about 0.25 µg dsRNA per well
Time to read-out: 4 days of dsRNA, then 4 hours of drug before read-out
Conditions: doxorubicin 0.5 µM for 4 hours to cause double-strand breaks, in cells also given a low, harmless dose of dsRNA against nbs to sensitise the assay
Read-out: 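Per-well count of mitotic cells stained for phospho-histone H3 after doxorubicin exposure, used as mitotic index; counts are raw and not normalised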
Reading the numbers: mitotic cells: higher = more cells in mitosis, weaker G2 arrest
Active means: 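a call needs confirmation in secondary tests, with other dsRNAs and a check of mitotic timing without damage, not just a high primary count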
Meaning of the calls: active = confirmed in follow-up tests; inactive = not confirmed
In all, the deposit lists about 23,000 reagents; this is an unselected part of those with a known target gene and a result. Over the whole deposit, 62 (0.27%) are marked active. 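Calls come from follow-up tests whose scores are not deposited, so confirmed genes may have low counts here; counts are not normalised per plate.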 The raw values are shown without normalisation. Unmarked entries are inactive. A plus sign joins genes that one reagent is predicted to hit.

target gene	DRSC id	mitotic cells, replicate 1
CheA75a	DRSC10807	7
her	DRSC03543	7
CG10081	DRSC05962	2
CG10081	DRSC24787	8
Hacl	DRSC06061	3
CG14669	DRSC12255	5
CG14669	DRSC26823	117
UQCR-C1	DRSC15508	4
CG32100	DRSC09725	4
CG32100	DRSC10331	3
Muc12Ea	DRSC19937	6
Muc12Ea	DRSC28059	4
CG10317	DRSC14229	8
ci	DRSC17172	8
Ae2	DRSC08997	9
Ae2	DRSC10969	4
CtBP	DRSC16617	7
CtBP	DRSC23712	7
Dbp45A	DRSC07395	7
CG15570	DRSC18058	13
Hsp68	DRSC16712	12
CG4286	DRSC04459	13
CG4286	DRSC24458	6
CG11110	DRSC06037	8
CG11110	DRSC27355	8
CG31029	DRSC15422	5
CG31029	DRSC29559	7
bnk	DRSC16912	10
bnk	DRSC29887	4
CG33514	DRSC08471	8
CG33514	DRSC08472	6
CG33514	DRSC21670	7
CG7231	DRSC03034	4
CG42306 + Gint3	DRSC06934	7
CG42306 + Gint3	DRSC29885	8
CG5697	DRSC23479	1
Nepl13	DRSC15632	14
CG32112	DRSC09815	5
emei	DRSC10897	4
emei	DRSC22684	16
Mst57Dc	DRSC16745	12
CG10949	DRSC02112	1
CG10949	DRSC27310	10
Eo	DRSC20187	11
Eo	DRSC26129	5
Ac3	DRSC03692	2
eIF3h	DRSC01995	5
eIF3h	DRSC27567	9
CG14763	DRSC06497	9
CG14763	DRSC25479	19
ScpX	DRSC03430	5
CG10274	DRSC09716	7
CG10274	DRSC24792	4
Kif3C	DRSC17209	4
Kif3C	DRSC17210	18
CG33296	DRSC00998	1
CG33296	DRSC23839	17
Cpr47Eb	DRSC06345	8
byn	DRSC11332	4
byn	DRSC29142	6
CG17029	DRSC10240	4
CG17029	DRSC29418	3
CG2871	DRSC18230	7
CG2871	DRSC21719	5
CG4995	DRSC02801	8
CG32726	DRSC17521	9
CG8545	DRSC07210	8
Nup37	DRSC14419	8
CG15894	DRSC18098	14
CG5498	DRSC11608	9
CG31883	DRSC02561	1
CG30048	DRSC22205	13
dec	DRSC18759	10
dec	DRSC21477	7
dec	DRSC27935	6
CG33257	DRSC09917	4
CG2006	DRSC15412	21
CG3987	DRSC15531	8
Irc	DRSC16454	3
Irc	DRSC28100	12
ssp	DRSC10252	10
Sec61alpha	DRSC03256	9
Wdr81	DRSC02985	7
Wdr81	DRSC27272	7
CG7272	DRSC10795	5
Spn42Dc	DRSC05010	7
sut1	DRSC07700	4
Not11	DRSC04204	10
Poxn	DRSC05589	11
Poxn	DRSC07512	6
Poxn	DRSC23830	7
SPE	DRSC15135	11
SPE	DRSC25455	7
CG44325	DRSC18423	13
TBC1D5	DRSC16421	8
TBC1D5	DRSC27219	7
peo	DRSC05995	6
Osi13	DRSC12281	8
r2d2	DRSC03014	14
r2d2	DRSC29562	11
BomBc3	DRSC15873	8
BomBc3	DRSC29503	5
CG15742	DRSC19708	8
CG15742	DRSC28195	7
Rpt2	DRSC16799	73
Rpt2	DRSC25012	46
CG4744	DRSC06887	5
CG4744	DRSC28696	2
CG3045	DRSC04331	7
CG15042	DRSC19618	11
